These are yes or no findings as the source states them, for the method shown. Binding seen in cells or lysates may run through a third protein. Binding calls can cover weak binding; strength is not graded here. Tags and fused reporters may be left off the sequences shown.
Target: GST-STAP-2 C (C-terminal proline-rich region of STAP-2 fused to GST)
Test: pull-down; HEK293T co-transfected with Myc-CAP and GST-STAP-2 constructs; lysed 36 h after transfection (50 mM Tris-HCl pH 7.4, 0.15 M NaCl, 1% NP-40); GSH-sepharose 2 h at 4 °C; blots with anti-Myc and anti-GST

B1: Myc-tagged c-Cbl associated protein (CAP) (protein, UniProt Q62417 1-1290)
chain: MSSECDVGSSKAVVNGLASGNHGPDKDMDPTKICTGKGTVTLRASSSYRGTPSSSPVSPQESPKHESKSGLEPEDPSADEWKLSSSADTNGNAQPSPLAAKGYRSVHPSLSADKPQGSPLLNEVSSSHIETDSQDFPPTSRPSSAYPSTTIVNPTIVLLQHNRDPASERRAGEQDPVPTPAELTSPGRASERRAKDASRRVVRSAQDLSDVSTDEVGIPLRNTERSKDWYKTMFKQIHKLNRDDDSDVHSPRYSFSDDTKSPLSVPRSKSEMNYIEGEKVVKRSATLPLPARSSSLKSSPERNDWEPLDKKVDTRKYRAEPKSIYEYQPGKSSVLTNEKMSRDISPEEIDLKNEPWYKFFSELEFGRPTNLEKDLSFCQAELEADLEKVETVNKSPSANSPQSSAVSPTPDITSEPPGYIYSSNFHAVKRESDGTPGGLASLENERQIYKSVLEGGDIPLQGLSGLKRPSSSASTKVDRKGGNAHMISSSSVHSRTFHTSNALGPGCKHKKPLSAAKACISEILPSKFKPRLSAPSALLQEQKSVLLPSEKAQSCENLCVSLNDSKRGLPLRVGGSIENLLMRSRRDYDSKSSSTMSLQEYGTSSRRPCPLSRKAGLHFSMFYRDMHQINRAGLSLGSISSSSVRDLASHFERSSLTLARGELGASQEGSEHIPKHTVSSRITAFEQLIQRSRSMPSLDFSGRLSKSPTPVLSRSGLTSARSAESLLESTKLRPREMDGMDSGGVYASPTCSNMADHALSFRSLVPSEPLSICSDELDHCSNVSNDSREGSGGSVHGDFPKHRLNKCKGTCPASYTRFTTIRKHEQQSSRQSDWRSDSRGDKNSLLRNIHLMSPLPFRLKKPLQQHPRQPPPSDSSESPAGQKADLPCHDPQDQPHSAGKPQVPTRLSSRHTMARLSHNSEPPLDRPAGLEDCTRAINNGNPVPYSDHGLDRNNNPQSELAAAHGDSESPRHFIPADYLESTEEFIRRRHDDKEKLLADQRRLKREQEEADIAARRHTGVIPTHHQFITNERFGDLLNIDDTAKRKSGLEMRPARAKFDFKAQTLKELPLQKGDVVYIYRQIDQNWYEGEHHGRVGIFPRTYIELLPPAEKAQPRKLAPVQVLEYGEAIAKFNFNGDTQVEMSFRKGERITLLRQVDENWYEGRIPGTSRQGIFPITYVDVLKRPLVKTPVDYIDLPYSSSPSRSATVSPQQPQAQQRRVTPDRSQPSLDLCSYQALYSYVPQNDDELELRDGDIVDVMEKCDDGWFVGTSRRTRQFGTFPGNYVKPLYL
- binding: binds
